Measurements reported in PubChem BioAssay AID743454 (Peter MacCallum Cancer Centre, 2014).
Test: 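Genes whose loss kills vorinostat-resistant colon cancer cells under vorinostat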 (primary screen). Cell system: human HCT116-VR colon cancer cells, selected for vorinostat resistance. Reagent: siRNA pool against human genes, 40 nM siRNA pool. Time to read-out: vorinostat for 24 h, read-out about 72 h after transfection. Treatment: vorinostat at 2.5 µM final. Measured: 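Two measures, CellTiter-Fluor viability and luminescent caspase 3/7 activity, each as fold change against same-plate mock wells, mean of duplicates, then screen-wide robust z-score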. Direction: viability robust z-score: higher = more viable cells than screen typical; caspase robust z-score: higher = more caspase 3/7 activity than screen typical. Active means: 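Hits are knock-downs in viability class RV1/RV2 or caspase class CA1/CA2, excluding ones that killed cells in the no-drug cell-count arm; hits then retested with single siRNAs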.
This is a random part of about 18,000 reagents. 450 of them (2.5%) count as active. 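Single biological run; no consistent viability z cut-off exists, so the class columns, not z-scores, define the calls.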 Entries without a mark were called inactive. Reagent sequences are not shown.

no.	target gene	viability hit class	caspase hit class	viability robust z-score	caspase robust z-score
1	DCAF8L1	no change	no change	0.55	-0.88
2	PIK3CA	no change	no change	-0.52	2.29
3	SLC24A1	no change	no change	0.96	-0.2
4	NOAZFP	RV2 (reduced viability) (active)	no change	-2.98	2.06
5	TFB1M	no change	no change	-0.12	0.08
6	PPP2R5C	no change	no change	0.97	1.27
7	ATP11A	no change	no change	0.2	-0.01
8	VILL	no change	no change	0.26	0.68
9	CD200R1	no change	no change	-0.52	0.21
10	COLEC11	no change	no change	0.34	-0.44
11	ZBTB48	no change	no change	-0.37	-0.73
12	SPRR2F	no change	no change	-0.36	1.54
13	HNRNPH1	no change	no change	-1.16	-0.89
14	ITPR1	no change	no change	-0.64	3.4
15	ITPRIPL2	no change	no change	0.08	-0.24
16	SLC46A3	no change	no change	-0.12	1.68
17	TREM1	no change	no change	-1	1.29
18	NUCB1	no change	no change	-0.42	2.23
19	TOM1	no change	no change	-1.98	-1.23
20	MAGEA12	no change	no change	0.18	0.19
21	THRB	no change	no change	-0.14	-0.57
22	STRN	no change	no change	0.64	-0.42
23	KLRC3	no change	no change	-2.48	1.12
24	MPST	no change	no change	-1.68	-0.41
25	SPATA6	no change	no change	0.72	-0.89
26	CLVS2	no change	no change	0.13	0.72
27	DNASE1L1	no change	no change	0.06	-0.86
28	VPS36	no change	no change	0	2.68
29	CEP250	no change	no change	-0.14	-0.84
30	ZNF443	no change	no change	-0.84	0.23
31	TAFA4	no change	no change	0.24	-0.92

The list goes on (5 carried over from the part before).
no.	target gene	viability hit class	caspase hit class	viability robust z-score	caspase robust z-score
27	DNASE1L1	no change	no change	0.06	-0.86
28	VPS36	no change	no change	0	2.68
29	CEP250	no change	no change	-0.14	-0.84
30	ZNF443	no change	no change	-0.84	0.23
31	TAFA4	no change	no change	0.24	-0.92
32	STOX2	no change	no change	0.21	-0.6
33	TIMM29	no change	no change	-0.38	1.51
34	CNTN4	no change	no change	0.15	-0.86
35	PAH	no change	no change	1.51	-0.66
36	RMDN3	no change	no change	1.5	1.81
37	GGH	no change	no change	-0.88	-0.03
38	P2RY12	RV2 (reduced viability) (active)	CA2 (caspase activation)	-4.65	5.31
39	SHARPIN	no change	no change	-0.5	3.47
40	MED11	no change	no change	-0.56	0.64
41	AVIL	no change	no change	1.52	0.32
42	GUCD1	no change	no change	0.73	0.24
43	CD96	no change	no change	0.36	-0.76
44	SPRR1A	no change	no change	0.16	1.1
45	CAP2	no change	no change	0.36	2.71
46	OR10A2	no change	no change	-2.23	1.43
47	MOBP	no change	no change	-0.66	-0.15
48	RPL17	no change	no change	-0.64	2.03
49	RNF40	no change (active)	CA1 (caspase activation)	-0.82	12.2
50	CHCHD7	no change	no change	0.14	-0.22
51	TAS2R7	no change	no change	-0.11	-0.71
52	CYRIA	no change	no change	-0.9	0
53	FBXL15	no change	no change	-0.24	-0.34
54	PPAT	no change	no change	0.7	-0.74
55	TP53BP1	no change	no change	1.42	-0.4
56	GPR149	no change	no change	0.3	0.98
57	ARFGAP1	no change	no change	0.71	-0.99
